No constants are given. Whether binding was seen depends on the method and setting. In cells and extracts the contact can be indirect. Binding calls can cover weak binding; strength is not graded here. Where a sequence is shown, tags or fusion partners need not be part of it.
Legend:
Experiment in all cases: co-IP
[1] = biological target: T1, C-terminally HA-tagged p88^pol (Red clover necrotic mosaic virus (Australian strain)) (UniProt P22956)
T1 sequence: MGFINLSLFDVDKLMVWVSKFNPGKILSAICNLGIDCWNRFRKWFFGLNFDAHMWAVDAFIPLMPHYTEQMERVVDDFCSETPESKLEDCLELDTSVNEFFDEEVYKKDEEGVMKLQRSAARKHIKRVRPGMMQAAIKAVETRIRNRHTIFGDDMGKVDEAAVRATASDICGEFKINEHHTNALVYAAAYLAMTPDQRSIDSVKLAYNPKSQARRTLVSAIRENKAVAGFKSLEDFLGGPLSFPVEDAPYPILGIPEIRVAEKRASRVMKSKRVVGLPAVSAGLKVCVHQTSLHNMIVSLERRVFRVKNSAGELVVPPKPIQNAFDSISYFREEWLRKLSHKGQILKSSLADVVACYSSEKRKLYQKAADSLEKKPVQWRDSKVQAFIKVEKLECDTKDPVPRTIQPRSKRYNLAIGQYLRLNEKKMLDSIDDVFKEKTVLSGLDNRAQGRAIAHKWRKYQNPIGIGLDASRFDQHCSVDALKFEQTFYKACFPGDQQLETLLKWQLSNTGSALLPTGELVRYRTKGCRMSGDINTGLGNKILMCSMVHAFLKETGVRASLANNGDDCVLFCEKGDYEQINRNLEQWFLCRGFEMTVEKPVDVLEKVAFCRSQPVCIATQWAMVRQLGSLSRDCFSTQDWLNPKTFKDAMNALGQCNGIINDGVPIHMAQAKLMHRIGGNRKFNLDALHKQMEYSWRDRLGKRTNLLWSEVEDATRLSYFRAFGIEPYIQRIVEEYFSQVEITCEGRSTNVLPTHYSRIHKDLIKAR

[2] = biological target: C-terminally FLAG-tagged NbPLDβ (N. benthamiana)
[3] = biological target: green fluorescent protein (GFP)-fused NbPLDβ (N. benthamiana)
[4] = biological target: C-terminally FLAG-tagged NbPLDα (N. benthamiana)

C-terminally FLAG-tagged NbPLDα (from UniProt A0A0M3VGN3) (enzyme)
binding [1]: binds

B1: Brome mosaic virus replication protein 1a (protein, UniProt P03588 1-961)
chain: MSSSIDLLKLIAEKGADSQSAQDIVDNQVAQQLSAQIEYAKRSKKINVRNKLSIEEADAFRDRYGGAFDLNLTQQYHAPHSLAGALRVAEHYDCLDSFPPEDPVIDFGGSWWHHFSRRDKRVHSCCPVLGVRDAARHEERMCRMRKILQESDDFDEVPNFCLNRAQDCDVQADWAICIHGGYDMGFQGLCDAMHSHGVRVLRGTVMFDGAMLFDREGFLPLLKCHWQRDGSGADEVIKFDFENESTLSYIHGWQDLGSFFTESVHCIDGTTYLLEREMLKCNIMTYKIIATNLRCPRETLRHCVWFEDISKYVGVSIPEDWSLNRWKCVRVAKTTVREVEEIAFRCFKESKEWTENMKAVASILSAKSSTVIINGQAIMAGERLDIEDYHLVAFALTLNLYQKYEKLTALRDGMEWKGWCHHFKTRFWWGGDSSRAKVGWLRTLASRFPLLRLDSYADSFKFLTRLSNVEEFEQDSVPISRLRTFWTEEDLFDRLEHEVQTAKTKRSKKKAKVPPAAEIPQEEFHDAPESSSPESVSDDVKPVTDVVPDAEVSVEVPTDPRGISRHGAMKEFVRYCKRLHNNSESNLRHLWDISGGRGSEIANKSIFETYHRIDDMVNVHLANGNWLYPKKYDYTVGYNEHGLGPKHADETYIVDKTCACSNLRDIAEASAKVSVPTCDISMVDGVAGCGKTTAIKDAFRMGEDLIVTANRKSAEDVRMALFPDTYNSKVALDVVRTADSAIMHGVPSCHRLLVDEAGLLHYGQLLVVAALSKCSQVLAFGDTEQISFKSRDAGFKLLHGNLQYDRRDVVHKTYRCPQDVIAAVNLLKRKCGNRDTKYQSWTSESKVSRSLTKRRITSGLQVTIDPNRTYLTMTQADKAALQTRAKDFPVSKDWIDGHIKTVHEAQGISVDNVTLVRLKSTKCDLFKHEEYCLVALTRHKKSFEYCFNGELAGDLIFNCVK
binding [2]: binds

B2: Brome mosaic virus replication protein 2a^pol (enzyme, UniProt P03594 1-822)
chain: MSSKTWDDDFVRQVPSFQWIIDQSLEDEVEAASLQVQEPADGVAIDGSLASFKLAIAPLEIGGVFDPPFDRVRWGSICDTVQQMVQQFTDRPLIPQAEMARMLYLDIPGSFVLEDEIDDWYPEDTSDGYGVSFAADEDHASDLKLASDSSNCEIEEVRVTGDTPKELTLGDRYMGIDEEFQTTNTDYDITLQIMNPIEHRVSRVIDTHCHPDNPDISTGPIYMERVSLARTEATSHSILPTHAYFDDSYHQALVENGDYSMDFDRIRLKQSDVDWYRDPDKYFQPKMNIGSAQRRVGTQKEVLTALKKRNADVPEMGDAINMKDTAKAIAKRFRSTFLNVDGEDCLRASMDVMTKCLEYHKKWGKHMDLQGVNVAAETDLCRYQHMLKSDVKPVVTDTLHLERAVAATITFHSKGVTSNFSPFFTACFEKLSLALKSRFIVPIGKISSLELKNVRLNNRYFLEADLSKFDKSQGELHLEFQREILLALGFPAPLTNWWSDFHRDSYLSDPHAKVGMSVSFQRRTGDAFTYFGNTLVTMAMIAYASDLSDCDCAIFSGDDSLIISKVKPVLDTDMFTSLFNMEIKVMDPSVPYVCSKFLVETEMGNLVSVPDPLREIQRLAKRKILRDEQMLRAHFVSFCDRMKFINQLDEKMITTLCHFVYLKYGKEKPWIFEEVRAALAAFSLYSENFLRFSDCYCTEGIRVYQMSDPVCKFKRTTEERKTDGDWFHNWKNPKFPGVLDKVYRTIGIYSSDCSTKELPVKRIGRLHEALERESLKLANDRRTTQRLKKKVDDYATGRGGLTSVDALLVKSHCETFKPSDLR
binding [2]: binds

B3: six-His/FLAG-tagged p88^pol (enzyme, UniProt P22956 1-767)
chain: T1 sequence
binding [3]: binds

B4: C-terminally HA-tagged p88^pol (enzyme, UniProt P22956 1-767)
chain: T1 sequence
binding [2]: binds
binding [4]: binds
